Measurements reported in PubChem BioAssay AID2685 (National Center for Advancing Translational Sciences (NCATS), 2010).
Out of some 320,000 compounds screened, about 2,100 (0.66%) were called active. This list was built around the results that the source calls inconclusive (neither active nor inactive); the mix of calls is not that of the screen. Calls come from the whole dose curve; as a rule, active = well fitted inhibition curve with a large enough effect in the signal ratio, with a control signal flat (not every such curve was filed as active); inconclusive = small, poorly fitted or top-dose-only effect, or effect the other way, or a change in a side signal; inactive = flat fitted curve, though single readings scatter; the % refers to the signal ratio. A potency beside an inconclusive call is a rough fit, not a confirmed value.

Assay: qHTS Assay for Lipid Storage Modulators in Drosophila S3 Cells
Details: BODIPY lipid droplet fluorescence, 18-24 h, cells fed with added oleic acid; lipid storage change, negative = inhibition: at 46.1 µM (top of the series) unless noted
Summary of the method: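 Laser-scanning cytometry quantifies lipid droplet accumulation (500–530 nm total intensity; droplet/cell object ratio) in oleic acid-fed (400 uM added) Drosophila S3 cells treated with a concentration series. 20 uM Triacsin C defined 100% inhibition.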
% is set by controls: 0 for no effect and ±100 for the full control effect; potency is the fitted concentration of half-maximal effect.

Row | Compound | Potency | lipid storage change, negative = inhibition
1 | COCCNC(=S)NC(=O)CC12CC3CC(CC(C3)C1)C2 | inconclusive: 0.0082 µM [falling, full curve, poor fit] | –
2 | Cc1ccc(S(=O)(=O)CCC(=O)OCC(=O)N2CCN(c3ccccc3)CC2)cc1 | – | inconclusive: -15.3%
3 | COc1cccc(C(=O)Nc2nnc(SCC(=O)NC3CCCC3)s2)c1 | inconclusive: 6.51 µM [falling, single point] | –
4 | COc1ccc(NC(=O)Cn2c3ccc(OC)cc3c3nc4n(c(=O)c32)CCS4)cc1 | – | inconclusive: -23.2%
5 | Cn1c(O)c(N=Nc2nc(-c3ccccc3)cs2)c2ccccc21 | inconclusive: 29.1 µM [activator, single point] | –
6 | CN1CCN(C(=O)CN(C)S(=O)(=O)c2ccc(F)cc2)CC1 | inconclusive: 5.8 µM [falling, single point] | –
7 | O=C(Nc1ccc(Cl)cc1)C1CCCC1 | – | inactive
8 | CCOc1ccccc1C(=O)Nc1cccc(-c2ccc(N3CCOCC3)nn2)c1 | – | inconclusive: 4.58%
9 | COc1ccc(OC)c(NC(=O)CCN2CCN(CCO)CC2)c1 | inconclusive: 29.1 µM [activator, single point] | –
10 | Cc1ccc(/C=N/NC(=O)c2ccncc2)s1 | – | inconclusive: 1.04%
11 | O=C(COC(=O)c1cccc(S(=O)(=O)N2CCOCC2)c1)Nc1ccc(Cl)cn1 | – | inactive
12 | COc1cccc(-c2noc(CCCC(=O)NC3CCCC3)n2)c1 | inconclusive: 20.6 µM [falling, single point] | –
13 | O=C(NCCO)c1ccc2nc(-c3ccco3)c(-c3ccco3)nc2c1 | – | inconclusive: 149%
14 | Cc1sc2ncnc(NCC(c3ccco3)N3CCCC3)c2c1C (configuration not stated) | inconclusive: 2.06 µM [falling, single point] | –
15 | O=C(COC(=O)C(O)c1ccccc1)NC12CC3CC(CC(C3)C1)C2 (configuration not stated) | – | inconclusive: 56.3%
16 | COc1ccc(C2=NN(C(=O)c3ccncc3)C(c3ccccc3O)C2)cc1 (configuration not stated) | inconclusive: 5.17 µM [activator, partial curve] | –
17 | O=C(Oc1cccc2cccnc12)c1ccc(Br)o1 | – | inconclusive: -11.7%
18 | Cc1ccc(-c2csc(NC(=O)c3ccc(S(=O)(=O)N4CCc5ccccc54)cc3)n2)cc1 | inconclusive: 8.2 µM [activator, partial curve, poor fit] | –
19 | CCc1ccc(-n2nnnc2SCC(=O)Nc2ccc(NC(C)=O)cc2)cc1 | inconclusive: 20.6 µM [falling, single point] | –
20 | COc1ccsc1C(=O)Nc1ccc(F)cc1F | – | inconclusive: 30.4%
21 | CN(C)C=Nc1ncc2c3ccccc3n(CCN(C)C)c2c1C#N | inconclusive: 4.61 µM [activator, full curve] | –
22 | COC(=O)C1=C(C)N(C)C(=S)N(C)C1c1cccc(Br)c1 (configuration not stated) | – | inconclusive: -49.8% [cytotoxic] [at 0.00295 µM]
23 | Cc1ccc(C)c(S(=O)(=O)N2CCN(C(=O)CN3C(=O)C4CC=CCC4C3=O)CC2)c1 (configuration not stated) | – | inconclusive: 12.6%
24 | NNC(=O)c1ccc(CN2C(=O)c3cccc4cccc2c34)cc1 | – | inconclusive: 27%
25 | Cc1ccc2nc(Cl)c(/C=N/Nc3nc(C)cc(C)n3)c(=O)n2c1 | inconclusive: 29.1 µM [falling, single point] | –
26 | Cc1ccc(/C=C/c2nc3ccccc3s2)s1 | – | inconclusive: 150%

Quoted from the listing.
Value for NNC(=O)c1ccc(CN2C(=O)c3cccc4cccc2c34)cc1 under lipid storage change, negative = inhibition: inconclusive: 27%
Value for Cc1ccc(/C=N/NC(=O)c2ccncc2)s1 under lipid storage change, negative = inhibition: inconclusive: 1.04%

Later entries.

Row | Compound | Potency | lipid storage change, negative = inhibition
27 | O=[N+]([O-])c1cccc(-n2nnnc2CN2CCCC2)c1 | – | inconclusive: 10%
28 | O=C(N/C(=C/c1cccnc1)C(=O)N1CCOCC1)c1ccco1 | – | inactive
29 | COC(=O)c1cc(NC(=O)CN2C(=O)C(=O)N(C3CCCC3)C2=O)cc(C(=O)OC)c1 | – | inconclusive: 13.2%
30 | CCOC(=O)c1cc(NC(=O)c2ccc(Cl)cc2)c(=O)n2c1oc1ccc(Cl)cc12 | – | inconclusive: 22%
31 | COc1ccc(CCNC(=O)/C=C/c2ccc(OC)c(S(=O)(=O)N3CCOCC3)c2)cc1 | – | inactive
32 | COCCOC(=O)c1c(C)oc2ccc(NS(=O)(=O)c3ccc(C(=O)O)cc3)cc12 | – | inconclusive: 86.3%
33 | Cc1ccccc1C(=O)NNC(=O)C1CC(=O)N(c2ccc3c(c2)OCCO3)C1 (configuration not stated) | – | inconclusive: 22%
34 | CC(C)c1ccccc1NC(=O)C1CCCN(C(=O)c2ccc(Cl)cc2)C1 (configuration not stated) | – | inconclusive: -51.6%
35 | COC(=O)c1cc(Br)ccc1NC(=O)Nc1ccccc1 | inconclusive: 5.17 µM [activator, full curve, poor fit] | –
36 | CC1N/C(=C\C(=O)c2ccccc2)N(O)C1(C)C (configuration not stated) | – | inconclusive: 0.384%
37 | Cc1occc1C(=O)Nc1cc(S(=O)(=O)N2CCOCC2)ccc1OC(C)C | inconclusive: 0.0052 µM [activator, full curve, poor fit] | –
38 | CCN(CC)S(=O)(=O)c1c(OC)cc(C)c(Cl)c1C | – | inactive
39 | CCN1C(=NCc2ccc(OC)cc2)N[C@@H](c2ccccc2)C(C(=O)OC)=C1C | – | inconclusive: 39.6%
40 | COc1cc(OC)c(-n2cc(-c3ccc(Cl)cc3)[nH]c2=O)cc1Cl | – | inconclusive: 24.6%
41 | CN1CCN(c2ccc(NC(=O)c3ccco3)cc2Cl)CC1 | – | inconclusive: 19.8%
42 | CCN(CC(=O)Nc1ccc(NC(C)=O)cc1)C(=O)Cc1ccc(S(=O)(=O)N2CCOCC2)s1 | inconclusive: 6.51 µM [activator, single point] | –
43 | O=S(=O)(c1ccccc1F)N1CCN(CC(O)c2ccccc2)CC1 (configuration not stated) | – | inconclusive: 39.7%
44 | O=C(C1CC1)N(CCN(Cc1ccccc1)C(=O)C1CC1)Cc1ccccc1 | inconclusive: 0.0046 µM [activator, full curve, poor fit] | –
45 | Cc1ccc(N2C(=O)CC(Nc3ccccc3)C2=O)cc1 (configuration not stated) | inconclusive: 3.66 µM [cytotoxic, full curve] | –
46 | CCN(CC)C(=O)C1=C(C)NC(=O)NC1c1c(F)cccc1Cl (configuration not stated) | inconclusive: 2.31 µM [cytotoxic, full curve] | –
47 | Cc1ccc(OCC(=O)Nc2nnc(-c3ccco3)s2)cc1 | – | inconclusive: 27.1%
48 | CNS(=O)(=O)c1ccc(C(=O)NCC(=O)NCC2COc3ccccc3O2)cc1 (configuration not stated) | inconclusive: 29.1 µM [activator, single point] | –
49 | CCN(c1ccccc1)S(=O)(=O)c1ccc(Cl)c(NC(=O)CSc2nncs2)c1 | – | inconclusive: -40%
50 | O=C(O)CC/C(=N\NC(=O)CNC(=O)/C=C/c1ccccc1)c1ccccc1 | – | inconclusive: 7.04%
51 | CCCCCCCc1ccc(-c2ccc(O)cc2)nc1 | – | inconclusive: -49.7%
52 | O=C(CCC(=O)NC1CCN(Cc2ccccc2)CC1)NCc1ccco1 | inconclusive: 1.3 µM [falling, full curve] | –

Row | Compound | Potency | lipid storage change, negative = inhibition
53 | CC1CCN(Cc2nnnn2-c2ccc(Cl)cc2)CC1 | active: 13 µM | –
54 | O=S(=O)(c1ccc(SCCOc2ccc(F)cc2)nc1)N1CCCC1 | – | inconclusive: 23.2%
55 | Clc1ccc(C2=CSC3=Nc4cccc5cccc(c45)N23)cc1 | active: 0.13 µM | –
56 | CCc1ccccc1N(CC(=O)Nc1cccc(N(C)S(C)(=O)=O)c1)S(C)(=O)=O | – | inactive
57 | O=C(C1CCCN(Cc2ccccc2Br)C1)N1CCCCC1 (configuration not stated) | – | inconclusive: -7.89%
58 | COc1ccc(OC)c(NC(=O)N2CCCC(C)C2)c1 (configuration not stated) | – | inconclusive: 37.1%
59 | O=C(Nc1nc(-c2ccccn2)cs1)C1CC1 | inconclusive: 23.1 µM [falling, partial curve] | –
60 | CCCSCCCNC(=O)Cn1cc2c(n1)CCC(C)C2 (configuration not stated) | – | inconclusive: -11.5%
61 | COCc1cc(C)nc(NCCO)c1C#N | – | inconclusive: 2.63%
62 | O=C(CN(C1CCCCC1)S(=O)(=O)c1ccc(Cl)cc1)NCc1cccnc1 | – | inconclusive: 55%
63 | COc1cc2c(cc1OC)-c1cc(NC3CCCCCCC3)nc(=O)n1CC2 | – | inconclusive: 21.8%
64 | Cn1c(SCc2nc3ccccc3[nH]2)nnc1-c1cccs1 | – | inconclusive: -10.4%
65 | COc1ccc(/C=N/OCC(=O)N(Cc2ccccc2)c2ccccc2C(=O)O)cc1 | inconclusive: 8.2 µM [falling, partial curve, poor fit] | –
66 | Cc1ccc(C(=O)Nc2ccccc2N2CCCC2)cc1 | inconclusive: 29.1 µM [activator, single point] | –
67 | Cc1nnc(SCC(=O)N(C2CCCCC2)C2CCS(=O)(=O)C2)n1N (configuration not stated) | – | inconclusive
68 | COc1cc(SC)ccc1C(=O)Nc1nc(C)cc(C)n1 | – | inconclusive: 9.13%
69 | c1ccc(CCn2nnnc2C(c2cccnc2)N2CCN(c3nc4ccccc4s3)CC2)cc1 (configuration not stated) | inconclusive: 0.184 µM [activator, full curve, poor fit] | –
70 | COc1ccc(NC(=S)Nc2ccccc2SC)c(OC)c1 | – | inconclusive: -9.28%
71 | Cc1cccc(NC(=O)CSc2nc(C3CC3)nc3ccccc23)c1 | inconclusive: 0.461 µM [activator, partial curve, poor fit] | –
72 | CC(=O)c1sc2nc(=O)c(C)nn2c1C | – | inconclusive: -2.93%
73 | CCc1cccc(CC)c1N(COC)C(=O)Cn1c(CO)nc2ccccc21 | inconclusive: 5.17 µM [falling, single point] | –
74 | COc1ccc(-c2cc(C(F)F)n3ncc(C(=O)NCC4CCCO4)c3n2)cc1 (configuration not stated) | inconclusive: 6.51 µM [rising, single point] | –
75 | COc1ccc(Oc2nc3c(c(=O)n(C)c(=O)n3C)n2Cc2ccccc2)cc1 | – | inconclusive: -4.84%
76 | COc1cccc(C(C)NC(=O)c2ccncc2)c1 (configuration not stated) | – | inconclusive: 201%
77 | Cc1ccc(C(=O)NCCCN2CCOCC2)cc1S(=O)(=O)N1CCOCC1 | inconclusive: 2.31 µM [falling, partial curve] | –

Part of the list above, with tabs.
Row	Compound	Potency	lipid storage change, negative = inhibition
66	Cc1ccc(C(=O)Nc2ccccc2N2CCCC2)cc1	inconclusive: 29.1 µM [activator, single point]	–
69	c1ccc(CCn2nnnc2C(c2cccnc2)N2CCN(c3nc4ccccc4s3)CC2)cc1 (configuration not stated)	inconclusive: 0.184 µM [activator, full curve, poor fit]	–
73	CCc1cccc(CC)c1N(COC)C(=O)Cn1c(CO)nc2ccccc21	inconclusive: 5.17 µM [falling, single point]	–
